Data taken from publication doi:10.1101/2024.09.18.613669.

Experiments:
Experiment in all cases: EMSA
ETV5 + FUS + MEF2A = conditions: FUS 300 nM, MEF2A 50 nM, ETV5 60-240 nM, FUS and MEF2A increase ETV5 binding
ETV5 = ETV5 60-240 nM, probe 5 nM
ETV1 + FUS + MEF2A = conditions: FUS 300 nM, MEF2A 50 nM, ETV1 120 nM, similar to ETV5

Measured: binding result

TTTTAACGGCGTGGTTTGAATGTTGCACTGGGTCCACCTGCCTCTGTCTCCGGCTGCGGGGACGTTCGGA (double strand) [MRPL30 probe WT]
binds: all assays above

Construct, isoform or probe ends are uncertain for at least one entry. For part of these data: At least one verdict was read from the data and is not stated in words by the source.
